Source: US8383168B2, “Antioxidant complex, cosmetic and pharmaceutical compositions containing said complex and use of said complex” (Natura Cosmeticos S.A., priority 2008, dated 2013)
Some of these results come from one statement about several compounds together. At least one compound was matched to its structure with a doubt left.

Experiment: DPPH free radical neutralization
Assay type: biochemical
Conditions: class by order of magnitude of IC-50 (%)

Row | Compound | antioxidant potency class (DPPH)
1 | CC(C)=CCC/C(C)=C/C=C/C(C)=C/C=C/C(C)=C/C=C/C=C(C)/C=C/C=C(C)/C=C/C=C(\C)CCC=C(C)C [Lycopene] | MEDIUM (substances that have provide high protection in very low concentrations −IC-50 (%) in the magnificence of 10^−2)
2 | Cc1c(C)c2c(c(C)c1O)CC[C@@](C)(CCC[C@H](C)CCC[C@H](C)CCCC(C)C)O2 [Tocopherol, alpha-tocopherol] | HIGH (substances that provide high protection in low concentrations −IC-50 (%) in the magnificence of 10^−3)
